These are yes or no findings as the source states them, for the method shown. Binding seen in cells or lysates may run through a third protein. Some binding calls cover weakened binding; strength is not graded here. Each block holds one molecule with its values, some of them ahead of it.
Experiments:
[1] = biological target: endogenous ZO-1 (Zonula occludens protein 1) (human (endogenous in HeLa)) (UniProt Q07157); assay: co-IP
[2] = biological target: T1, endogenous ZO-1 (Zonula occludens protein 1) (human (endogenous in HeLa)), Q07157; assay: co-IP; details: remark: other sources report otherwise
T1 chain: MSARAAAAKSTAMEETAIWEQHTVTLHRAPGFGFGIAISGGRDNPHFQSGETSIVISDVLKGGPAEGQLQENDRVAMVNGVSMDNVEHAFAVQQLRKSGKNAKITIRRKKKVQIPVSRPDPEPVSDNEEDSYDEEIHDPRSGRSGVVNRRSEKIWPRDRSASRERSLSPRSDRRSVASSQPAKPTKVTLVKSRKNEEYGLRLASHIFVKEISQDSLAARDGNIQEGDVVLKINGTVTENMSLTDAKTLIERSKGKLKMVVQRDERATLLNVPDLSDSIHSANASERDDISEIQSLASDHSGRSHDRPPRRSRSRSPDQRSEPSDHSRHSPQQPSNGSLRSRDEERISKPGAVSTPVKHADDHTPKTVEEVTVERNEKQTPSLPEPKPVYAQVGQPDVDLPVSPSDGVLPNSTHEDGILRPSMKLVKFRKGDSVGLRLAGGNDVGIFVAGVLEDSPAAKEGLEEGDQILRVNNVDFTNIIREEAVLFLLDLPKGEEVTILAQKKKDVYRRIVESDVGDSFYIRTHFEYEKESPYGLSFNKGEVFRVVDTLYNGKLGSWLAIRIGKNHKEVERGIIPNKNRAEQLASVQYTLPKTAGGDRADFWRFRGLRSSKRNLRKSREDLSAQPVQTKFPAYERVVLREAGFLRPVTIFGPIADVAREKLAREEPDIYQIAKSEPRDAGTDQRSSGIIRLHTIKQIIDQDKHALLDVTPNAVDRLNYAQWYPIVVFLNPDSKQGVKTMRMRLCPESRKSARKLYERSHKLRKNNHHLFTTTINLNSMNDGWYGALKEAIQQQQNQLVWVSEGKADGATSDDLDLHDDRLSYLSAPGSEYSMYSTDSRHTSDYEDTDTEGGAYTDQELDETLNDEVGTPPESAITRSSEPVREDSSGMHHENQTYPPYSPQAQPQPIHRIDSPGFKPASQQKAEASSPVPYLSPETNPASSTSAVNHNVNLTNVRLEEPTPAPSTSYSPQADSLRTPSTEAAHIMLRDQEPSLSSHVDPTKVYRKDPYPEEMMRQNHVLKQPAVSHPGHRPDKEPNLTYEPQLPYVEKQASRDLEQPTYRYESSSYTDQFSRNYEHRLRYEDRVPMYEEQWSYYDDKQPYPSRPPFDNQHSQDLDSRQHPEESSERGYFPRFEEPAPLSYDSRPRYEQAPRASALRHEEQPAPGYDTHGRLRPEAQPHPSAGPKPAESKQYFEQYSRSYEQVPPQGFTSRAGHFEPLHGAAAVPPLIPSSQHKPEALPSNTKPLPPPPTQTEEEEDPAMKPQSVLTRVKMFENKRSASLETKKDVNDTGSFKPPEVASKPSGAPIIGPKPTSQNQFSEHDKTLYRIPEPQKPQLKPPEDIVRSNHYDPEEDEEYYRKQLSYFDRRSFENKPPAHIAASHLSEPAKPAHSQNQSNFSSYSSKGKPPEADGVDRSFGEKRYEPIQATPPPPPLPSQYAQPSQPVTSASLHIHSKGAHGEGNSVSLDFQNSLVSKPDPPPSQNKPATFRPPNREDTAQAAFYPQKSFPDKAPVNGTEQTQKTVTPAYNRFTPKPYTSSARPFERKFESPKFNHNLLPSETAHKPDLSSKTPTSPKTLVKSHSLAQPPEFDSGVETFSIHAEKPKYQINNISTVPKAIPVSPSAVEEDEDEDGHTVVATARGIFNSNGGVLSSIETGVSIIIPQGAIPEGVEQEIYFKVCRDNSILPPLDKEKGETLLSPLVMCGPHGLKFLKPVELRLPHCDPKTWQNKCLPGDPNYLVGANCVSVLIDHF

- binding [1]: binds
Molecule: Cx36 A319T, in HeLa cells (from UniProt O54851 1-321)

- binding [2]: no binding
B1: Connexin 36 (wild type), in HeLa cells, O54851 1-321 (protein)
chain: MGEWTILERLLEAAVQQHSTMIGRILLTVVVIFRILIVAIVGETVYDDEQTMFVCNTLQPGCNQACYDRAFPISHIRYWVFQIIMVCTPSLCFITYSVHQSAKQRERRYSTVFLALDRDPAESIGGPGGTGGGGSGGSKREDKKLQNAIVNGVLQNTETTSKETEPDCLEVKELTPHPSGLRTAARSKLRRQEGISRFYIIQVVFRNALEIGFLVGQYFLYGFSVPGLYECNRYPCIKEVECYVSRPTEKTVFLVFMFAVSGICVVLNLAELNHLGWRKIKLAVRGAQAKRKSVYEIRNKDLPRVSVPNFGRTQSSDSAYV
